The record followed here is PubChem BioAssay AID493014 (National Center for Advancing Translational Sciences (NCATS), 2011).

The assay in a line: qHTS Assay to Find Inhibitors of Chronic Active B-Cell Receptor Signaling. The settings on record: ABC-DLBCL IkBa-CBG/CBR reporter, luminescence ratio (green luciferase fused to IkBa over red control in TMD8 lymphoma cells), 4 h. In outline: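 Doxycycline induced both beetle luciferases in TMD8 lymphoma cells; IKK-driven degradation limits the IkappaBalpha-fused green signal, while red luminescence normalises for cell number and nonspecific effects. Compounds tested up to 46 uM, 4 hrs.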

[1] abbreviates: measured here: CBR red luminescence, cell number.
[2] abbreviates: measured here: IkBa-CBG green luminescence.

This is one part of the list. These are further read-outs of the screen, such as a control signal, another cell line or another target. No call is given for them. Compounds called inactive in the main read-out are mostly missing here. Potencies come from curve fits of mixed quality, noted in brackets.

The AC50 is the concentration giving half of the maximal activity seen. With `COc1ccccc1N1CCN(C(=O)C2CCN(S(=O)(=O)c3ccc(Cl)cc3)CC2)CC1`, the concentration at half-maximal activity (AC50) under setting [1] is 11.2 µM [falling, partial curve, poor fit].
With `Cc1ccc(/C(N)=N/OC(=O)c2ccco2)cc1`, under setting [1], the AC50 is 0.651 µM [rising, full curve].
The same measure, in the same setting: with `O=C(Nc1ccc(N2CCCCCC2)cc1)c1ccccc1Cl` the figure was 10 µM [falling, partial curve]; with `CCc1ccccc1NC(=O)CCC(=O)c1cccs1`, 31.6 µM [falling, single point]; with `Cc1csc(N(C)C(=O)CSc2nnc(COc3cccc4ccccc34)o2)n1`, 0.651 µM [rising, full curve, poor fit].
Regarding `Cc1cccn2c(=O)c(/C=C(\C#N)C(N)=O)c(N3CCN(c4cccc(Cl)c4)CC3)nc12`, the AC50 under setting [1] was 14.1 µM [falling, single point].
The same measure, in the same setting: with `COc1ccc(N=Cc2ccc[nH]2)cc1` the figure was 6.51 µM [falling, single point]; with `Cc1cc(N2C(=O)C(O)=C(C(=O)c3cccs3)C2c2ccc(F)cc2)no1` (configuration not stated), 1.78 µM [falling, full curve]; with `COc1ccc2c(c1)N(C(=O)CSc1n[nH]c(C)n1)C(C)(C)C=C2C`, 29.1 µM [rising, single point].
Turning to `Cc1ccc(-c2ccc(C#N)c(=O)n2CC(=O)N(C)C)cc1`, the AC50 under setting [1] was 0.282 µM [rising, full curve, poor fit].
Turning to `COc1ccc(OC)c(C2C(C(N)=O)=C(C)Nc3nc(-c4cccc(Cl)c4)nn32)c1` (configuration not stated), the AC50 under setting [1] is 10 µM [falling, partial curve].
On the same count and under the same terms, next, `CC(NC(=O)Nc1ccc(Cl)cc1)C1CCCO1` (configuration not stated): 2 µM [rising, partial curve, poor fit].
On to `COc1ccc(/C=C/c2nc3ccccc3n2Cc2ccc(OC)c(OC)c2)cc1`, for which the half-maximal activity concentration (AC50) under setting [2] was 3.26 µM [falling, partial curve, poor fit].
Consider `CCN(CC)C(=O)[C@H]1CC(CC(=O)NCC23CC4CC(CC(C4)C2)C3)C(=O)N2CCc3c([nH]c4ccc(OC)cc34)[C@]12C` (some centres not stated), for which the AC50 under setting [1] is 29.1 µM [falling, partial curve, poor fit].
For `Oc1ccc(N=Cc2c(O)ccc3ccccc23)cc1`, under setting [1], the AC50 is 10 µM [falling, partial curve].
With `COc1ccc(C(C(=O)NCCC(C)C)N(CCO)C(=O)c2snc(C(N)=O)c2N)cc1OC` (configuration not stated), under setting [1], the AC50 was 10 µM [rising, partial curve].
Still for that read-out and setting: with `NC(=O)c1sc2nnc(-c3ccccc3)c(-c3ccccc3)c2c1N` the figure was 6.31 µM [rising, partial curve, poor fit].
Still for that read-out and setting: with `O=C(/C=C/c1ccccc1[N+](=O)[O-])OCC(=O)c1ccccc1` the figure was 35.5 µM [falling, single point]; with `O=C(N=Nc1ccc(NOC(=O)c2ccccc2Br)cc1)c1ccccc1O`, 0.112 µM [falling, full curve]; with `COc1cccc(-c2cc(C(=O)NCc3ccccc3)[nH]n2)c1`, 35.5 µM [falling, partial curve, poor fit].
With `CCOc1ccc2oc(C(=O)Nc3ccc4c(c3)OCO4)c(C)c2c1`, the AC50 under setting [1] was 20 µM [falling, partial curve, poor fit].
On the same count and under the same terms, with `N#Cc1cccnc1Oc1ccccc1` the figure was 0.1 µM [rising, full curve, poor fit]; with `N/C(Cn1cncn1)=N\NC(=O)C(=O)Nc1ccccc1`, 14.1 µM [falling, single point].
On the same count and under the same terms, with `O=C(c1ccc2c(Cl)c3c(nc2c1)CCCC3)N1CCC(N2CCCCC2)CC1` the figure was 29.1 µM [falling, single point]; with `COc1ccccc1CN1C[C@@H]2C[C@@H](c3cccc(C)n3)N3CCC[C@@]23C1=O`, 5.62 µM [rising, single point]; with `CCC(CO)Oc1cc(NC(=O)c2ccccc2N)c2ncn(C(C)C)c2c1` (configuration not stated), 2.59 µM [rising, full curve, poor fit].
Same read-out and setting: next, `Nc1c(C(=O)NC2CCCCC2)nsc1C(=O)OCC(=O)NC1CCCCC1`: 0.316 µM [falling, full curve, poor fit].
Consider `COc1ccc(N2CCC(CNC(=O)Nc3ccc(Cl)cc3)C2)cc1` (configuration not stated), for which the half-maximal activity concentration (AC50) under setting [1] was 3.16 µM [rising, partial curve, poor fit].
Same read-out and setting: next, `CC(C)(C)OC(=O)CNC(=O)c1nc[nH]c1C(=O)N1CCN(C(=O)OC(C)(C)C)CC1`: 35.5 µM [falling, single point].
Same read-out and setting: next, `COc1ccc(CC(=O)OCC(=O)Nc2ccc(Cl)cc2C)cc1`: 29.1 µM [rising, single point]; `CC(=O)c1cccc(N(CC(=O)Nc2ccc(F)cc2)S(C)(=O)=O)c1`: 4.61 µM [falling, full curve].
Take `OCC1(CC2CCCCO2)CCN(Cc2nc3ccccc3[nH]2)CC1` (configuration not stated): under setting [1], the AC50 is 12.6 µM [falling, partial curve, poor fit].
The same measure, in the same setting: with `O=C(N/N=C/C=C\c1ccccc1[N+](=O)[O-])c1cccs1` the figure was 20.6 µM [falling, partial curve]; with `Cc1cc(-c2cc(C(=O)NCc3ccccc3)on2)nc(S(C)(=O)=O)n1`, 17.8 µM [falling, single point].
For the compound `CCc1cccc2c(C(=O)COC(=O)c3ccc(O)cc3)c[nH]c12`, under setting [1], the AC50 is 6.51 µM [falling, partial curve].
On to `CCCCn1c(SCC(=O)c2ccc(OC)c(OC)c2)nc2cc(S(N)(=O)=O)ccc21`, for which the half-maximal activity concentration (AC50) under setting [1] was 32.6 µM [falling, single point].
As for `Cc1ccc(CSc2nc3ccncc3[nH]2)cc1`, the AC50 under setting [1] is 29.1 µM [falling, single point].
The same measure, in the same setting: next, `Cc1cc(=O)[nH]c(=S)n1-c1ccccc1`: 0.92 µM [falling, full curve]; `Cc1ccc(N2CC(C(=O)N3CCc4ccccc4C3)CC2=O)cc1` (configuration not stated): 29.1 µM [rising, single point].
Same read-out and setting: next, `Cc1ccccc1C(=O)N1CCCN(C(=O)c2ccccc2C)CC1`: 3.16 µM [falling, single point].
`O=C(Nc1nc(-c2ccccc2)cs1)C1c2ccccc2Oc2ccccc21`: the AC50 is, setting by setting: under setting [1], 7.31 µM [falling, partial curve]; under setting [2], 5.8 µM [rising, full curve, poor fit].
